# Laboratory results from PubChem BioAssay AID504327 (National Center for Advancing Translational Sciences (NCATS), 2011).
# Protein sequences, listed by entry. Tags and fused reporters are not part of them.
# UniProt Q92830, whole entry, looked up: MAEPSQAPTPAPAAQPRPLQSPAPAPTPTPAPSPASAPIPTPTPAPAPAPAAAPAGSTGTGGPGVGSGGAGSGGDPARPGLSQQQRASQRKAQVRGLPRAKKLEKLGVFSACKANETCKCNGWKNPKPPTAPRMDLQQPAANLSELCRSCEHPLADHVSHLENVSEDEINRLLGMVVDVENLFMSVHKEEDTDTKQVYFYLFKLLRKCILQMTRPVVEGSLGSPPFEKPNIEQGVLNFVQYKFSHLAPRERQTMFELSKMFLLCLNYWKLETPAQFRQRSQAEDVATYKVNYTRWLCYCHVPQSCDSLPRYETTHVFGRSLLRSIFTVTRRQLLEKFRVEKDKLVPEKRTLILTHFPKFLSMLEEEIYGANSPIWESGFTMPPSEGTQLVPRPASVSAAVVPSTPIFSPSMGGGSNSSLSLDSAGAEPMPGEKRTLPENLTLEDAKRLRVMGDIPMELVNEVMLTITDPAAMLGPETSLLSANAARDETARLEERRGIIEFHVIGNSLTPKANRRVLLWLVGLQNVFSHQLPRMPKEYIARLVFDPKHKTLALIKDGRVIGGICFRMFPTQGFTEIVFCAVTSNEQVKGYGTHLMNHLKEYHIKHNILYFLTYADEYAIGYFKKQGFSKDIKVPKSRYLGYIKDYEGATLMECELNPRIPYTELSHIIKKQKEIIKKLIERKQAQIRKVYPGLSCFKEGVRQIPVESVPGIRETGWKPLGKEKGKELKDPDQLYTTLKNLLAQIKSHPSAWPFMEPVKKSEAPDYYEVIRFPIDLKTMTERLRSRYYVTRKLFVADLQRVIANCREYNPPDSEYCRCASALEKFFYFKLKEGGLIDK
# Screen size: about 390,000 compounds; about 820 (0.21%) were called active. Inconclusive results, whose numbers are uncertain, are shown with a selection of clear calls. The call rests on the fitted dose curve; in most records, active means well fitted inhibition curve with a large enough effect; inconclusive means small, poorly fitted or top-dose-only effect, or another doubt; inactive means no such curve, though single readings can be large or run the other way. A potency beside an inconclusive call is a rough fit, not a confirmed value.
# Molecular target: Histone acetyltransferase KAT2A (Homo sapiens) (UniProt Q92830)
# Assay: qHTS Assay for Inhibitors of GCN5L2
# Settings: GCN5L2 HAT assay, ThioGlo1 CoA-SH fluorescence; activity change, negative = inhibition: at 58.9 µM (top of the series) unless noted
# Summary of the method: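 Titration-based screen in which CoA formation is detected via maleimide probe ThioGlo1 (50uM) turning fluorescent on thiol reaction; substrates H3(1-25) 75uM and acetyl-CoA 70uM, GCN5L2 20nM, 20 min incubation at room temperature.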
# On the % scale 0 is the no-effect control and ±100 the full control effect; potency means the concentration at half of the fitted maximal effect.
SMILES,Potency,"activity change, negative = inhibition"
O=C(Nc1ccc(Oc2ccccc2)nc1)C1CCN(Cc2cccc(F)c2)CC1,"inconclusive: 39.8 µM [inhibitor, single point]",–
Cc1ccccc1NC(=O)CN1C(=O)C2C3CC(C(Br)C3Br)C2C1=O (stereo unspecified),–,inactive: -6.89%
COc1ccc2c(N)c(C(=O)NN)[nH]c2c1,–,inactive: -4.81%
Cc1cc(NC(=O)CSc2nncc(=O)n2N)no1,"inconclusive: 0.708 µM [inhibitor, single point]",–
Cc1cccc(NS(=O)(=O)c2cccc(C(=O)N3CCN(c4ccccn4)CC3)c2)c1,"inconclusive: 11.2 µM [inhibitor, partial curve, poor fit]",–
Nc1ccc2nc(-c3ccc(Cl)cc3)[nH]c2c1,"inconclusive: 11.2 µM [inhibitor, partial curve]",–
CCOC(=O)C(C)N1C(=O)S/C(=C/c2cc(C)n(-c3ccncc3)c2C)C1=O (stereo unspecified),–,inactive: -10.6%
CC1=C(C#N)c2nc(N)c(C#N)c(C)c2/C1=C\c1ccc(-c2ccccc2C(=O)O)o1,"inconclusive: 35.5 µM [inhibitor, single point]",–
CCCc1nnc(NS(=O)(=O)c2ccccc2)s1,"inconclusive: 39.8 µM [inhibitor, single point]",–
O=P(c1ccccc1)(c1ccccc1)c1nc(-c2ccccc2)oc1NCc1ccccc1,–,inactive: 0.816%
O=c1oc2c(CN3CCCCC3)c(O)ccc2c2c1CCCCC2,"inconclusive: 25.1 µM [inhibitor, single point]",–
CSc1c(CC(=O)Nc2ccccc2)n(C)c2ccccc12,–,inactive: -2%
Cc1ccc2nc(-c3ccc(N4CCOCC4)cc3)c(Nc3ccccc3C)n2c1,"inconclusive: 39.8 µM [inhibitor, single point]",–
CCOc1ccc(NC(=O)C(C)SC(N)=O)cc1 (stereo unspecified),"inconclusive: 35.5 µM [inhibitor, single point]",–
Cc1ccc(-n2nc(-c3ccc(OC(F)(F)F)cc3)cc2N)cc1C,"inconclusive: 39.8 µM [inhibitor, partial curve, poor fit]",–
COc1ccc(NC(=O)C2CC(=O)N(c3ccccc3Cl)C2)c(OC)c1 (stereo unspecified),–,inactive: -0.353%
NS(=O)(=O)c1ccc(CNC(=O)c2cc(-c3cccnc3)nc3ccc(Br)cc23)cc1,"inconclusive: 39.8 µM [inhibitor, single point]",–
Cc1cc(C)c(S(=O)(=O)ON2C(=O)c3ccccc3C2=O)cc1C,–,inactive: -24.7%
COc1cc(C(C#N)N2N=C(c3ccccc3)CC2c2ccccc2)ccc1O (stereo unspecified),–,inactive: -4.28%
C/C(CC(C)C)=N\NS(=O)(=O)c1ccc(C)c([N+](=O)[O-])c1,–,inactive: -3.98%
O=C(c1ccc(OC2CCN(Cc3ccccc3C(F)(F)F)CC2)cc1)N1CCCCC1,"inconclusive: 0.794 µM [inhibitor, full curve, poor fit]",–
CCOc1ccc2c(c1)c(N=NC(N)=S)c(O)n2C,"inconclusive: 7.08 µM [inhibitor, single point]",–
COc1ccc(NC(=O)CSCC(=O)Oc2c(OC)cccc2OC)cc1,–,inactive: -0.222%
O=C(Cc1ccccc1)NN1C(=O)c2ccccc2C1=O,–,inactive: -0.396%

# Five entries from above, sorted by molecular weight, high to low:
SMILES,Potency,"activity change, negative = inhibition"
NS(=O)(=O)c1ccc(CNC(=O)c2cc(-c3cccnc3)nc3ccc(Br)cc23)cc1,"inconclusive: 39.8 µM [inhibitor, single point]",–
Cc1ccc2nc(-c3ccc(N4CCOCC4)cc3)c(Nc3ccccc3C)n2c1,"inconclusive: 39.8 µM [inhibitor, single point]",–
Cc1ccc(-n2nc(-c3ccc(OC(F)(F)F)cc3)cc2N)cc1C,"inconclusive: 39.8 µM [inhibitor, partial curve, poor fit]",–
CSc1c(CC(=O)Nc2ccccc2)n(C)c2ccccc12,–,inactive: -2%
CCOc1ccc2c(c1)c(N=NC(N)=S)c(O)n2C,"inconclusive: 7.08 µM [inhibitor, single point]",–

# (listing goes on)

SMILES,Potency,"activity change, negative = inhibition"
Cc1nc(-c2ccc(S(=O)(=O)N3CCN(c4ccccc4)CC3)cc2)co1,–,inactive: -0.643%
CCCCNc1c(-c2ccc(OC)c(SC3CCCCC3)c2)nc2cnccn12,"inconclusive: 35.5 µM [inhibitor, single point]",–
Cc1nn(CC(=O)N2CCC(N3CCCCC3)CC2)c(=O)c2c1sc1ccccc12,–,inactive: -1.89%
O=C(CSc1nc2ccccc2s1)NNC(=O)Nc1ccc(Cl)c(Cl)c1,–,inactive: -4%
COCCC(=O)N1CCC(Oc2ccc(C(=O)NCCc3ccccn3)cc2)CC1,"inconclusive: 25.1 µM [inhibitor, partial curve]",–
N#CCC(=O)N/N=C/c1cn(Cc2ccc(Cl)cc2Cl)c2ccccc12,"inconclusive: 0.631 µM [inhibitor, full curve, poor fit]",–
Cc1ccsc1/C=C/c1ccc2ccccc2n1,"inconclusive: 0.891 µM [inhibitor, single point]",–
COc1ccc(-c2cn(-c3ccc(C)cc3C)c(=O)[nH]2)cc1OC,–,inactive: -0.198%
S=c1nc(-c2ccccc2)[nH]n1-c1ccccc1,active: 12.6 µM,–
COc1ccc(-n2c(=O)cnc3cnc(N(C)C)nc32)cc1,–,inactive: -16.3%
CC(=O)c1cccc(OCC(O)CNCC2COc3ccccc3O2)c1 (stereo unspecified),"inconclusive: 3.55 µM [inhibitor, single point]",–
CC(C)CCC(C(=O)O)C(C)CC(=O)NNC(=O)c1ccco1 (stereo unspecified),inactive,–
O=C(CC1C(=O)OCC2CCCCN21)Nc1ccccc1C(F)(F)F (stereo unspecified),"inconclusive: 0.794 µM [inhibitor, single point]",–
Cc1nc(N)nc(Nc2ccc(C#N)cc2)c1Br,–,inactive: -15.3%
COc1ccc(CCNC(=O)CSCc2ccc([N+](=O)[O-])cc2)cc1OC,–,inactive: 3.11%
C=C(C)C(=O)N1CC2(CC(c3cccc(NC(=O)c4ccccc4)c3)=NO2)C[C@@H]1C(N)=O (stereo partly specified),"inconclusive: 39.8 µM [inhibitor, single point]",–
Cc1ccc(NC(=O)N2CCc3ccccc3C2)cc1C,"inconclusive: 1.41 µM [inhibitor, partial curve, poor fit]",–
COc1cc([N+](=O)[O-])ccc1NC(=O)C1C2C=CC(C2)C1C(=O)O (stereo unspecified),"inconclusive: 15.8 µM [inhibitor, partial curve]",–
COc1c(C)cccc1C(=O)Nc1ccc(OCC(=O)N2CCOCC2)cc1C,"inconclusive: 39.8 µM [inhibitor, single point]",–
Cc1ccccc1OCC(=O)NC(C)c1ccccc1 (stereo unspecified),"inconclusive: 1.12 µM [inhibitor, full curve, poor fit]",–
Cc1ccc(CN(Cc2ccco2)C(=O)c2ccccc2Cl)o1,–,inactive: -4.76%
CCOc1ccc(N2CSC3=C(C#N)C(c4ccco4)CC(=O)N3C2)cc1 (stereo unspecified),"inconclusive: 22.4 µM [inhibitor, partial curve]",–
CCOC(=O)c1sc(N=NC2=C(O)CC(C)(C)CC2=O)c(C(=O)OCC)c1C,–,inactive: 18.6%
CCN1C(=O)[C@H]2[C@@H](c3ccc(-c4ccc(Cl)c(Cl)c4)cc3)N[C@@](CC(C)C)(C(=O)OC)[C@H]2C1=O,–,inactive: -14%

SMILES,Potency,"activity change, negative = inhibition"
CCc1nn(CC(=O)NCCc2ccc(Cl)cc2)c(=O)c2cccn12,"inconclusive: 3.98 µM [inhibitor, partial curve]",–
Cc1ccc(C)c(NC(=O)NNC(=O)c2cc3ccccc3cc2O)c1,"inconclusive: 35.5 µM [inhibitor, single point]",–
CC(C)(C)OC(=O)N1CCC(c2c(C(=O)O)cnn2-c2ccc(F)cc2F)CC1,–,inactive: -0.801%
CCC(=O)Nc1ccc(C(=O)COC(=O)c2nc3nccc(C)n3n2)cc1,"inconclusive: 15.8 µM [inhibitor, partial curve]",–
CC1Cc2nc(SCC(=O)Nc3ccc4c(c3)OCO4)n(-c3ccc(F)cc3)c(=O)c2S1 (stereo unspecified),"inconclusive: 0.126 µM [inhibitor, full curve, poor fit]",–
O=C(Nc1ccc2c(c1)OCCO2)c1cccnc1Oc1ccccc1,"inconclusive: 11.2 µM [inhibitor, single point]",–
O=C(NCc1ccco1)c1cc2ccc(O)cc2oc1=O,"inconclusive: 25.1 µM [inhibitor, single point]",–
COc1ccccc1N1CCN(S(=O)(=O)CCNC(=O)c2cc(=O)c3ccccc3o2)CC1,inactive,–
COc1cccc(NC(=O)C(C)N2C(=O)c3ccccc3C2=O)c1 (stereo unspecified),"inconclusive: 3.98 µM [inhibitor, single point]",–
Cc1[nH]n(C(N)=S)c(=O)c1N=Nc1ccc2ccccc2c1,–,inactive: 1.36%
N[C@@H](CCCCNC(=O)CCCC[C@@H]1SC[C@H]2NC(=O)N[C@H]12)C(=O)O,"inconclusive: 1.58 µM [inhibitor, full curve, poor fit]",–
C/C(=N\NC(=O)C(O)c1ccccc1)c1ccc(Cl)s1 (stereo unspecified),"inconclusive: 28.2 µM [inhibitor, single point]",–
COc1ccc(-c2nc3cc([N+](=O)[O-])ccc3o2)cc1OC,"inconclusive: 5.62 µM [inhibitor, single point]",–
Cc1cc(C)c2c(=O)n(CC(=O)Nc3ccc(Cl)cc3)sc2n1,"inconclusive: 39.8 µM [inhibitor, single point]",–
CCOC(=O)c1c(NC(=O)CSc2nnnn2-c2ccc(OC)cc2)sc(C)c1C,"inconclusive: 28.2 µM [inhibitor, single point]",–
CCc1ccc(CNC(=O)c2ccc(OC3CCN(C(C)=O)CC3)c(OC)c2)nc1,"inconclusive: 0.141 µM [inhibitor, full curve, poor fit]",–
CC1(C)Cc2nc3sc4c(SCC(=O)NC(c5ccccc5)c5ccccc5)ncnc4c3cc2CO1,"inconclusive: 1 µM [inhibitor, partial curve, poor fit]",–
COC(=O)c1cccc(CN2C(=O)SC(Nc3ccccc3)C2=O)c1 (stereo unspecified),"inconclusive: 3.55 µM [inhibitor, partial curve, poor fit]",–
CCCC(=O)Nc1nnc(/C=C/c2ccccc2)s1,"inconclusive: 0.708 µM [inhibitor, single point]",–
Cc1ccc(S(=O)(=O)N2CCN(Cc3ccccc3C(F)(F)F)CC2)cc1,active: 1.58 µM,–
O=C(COC(=O)CCC(=O)c1ccccc1)NNC(=O)c1ccc(Cl)cc1,"inconclusive: 25.1 µM [inhibitor, single point]",–
CC(=O)/C=C1\C(=O)N(C)c2ccccc21,"inconclusive: 20 µM [inhibitor, partial curve]",–
CN(C)c1ccc(C(=O)OCC(=O)NC2CCCCC2)cc1,"inconclusive: 12.6 µM [inhibitor, partial curve]",–
